These are yes or no findings as the source states them, for the method shown. Binding seen in cells or lysates may run through a third protein. Binding can be weak; no strength is given. Sequences can lack the tags named with a protein.
Columns and labels:
Assay in all cases: pull-down; His6-tagged Get3d co-expressed with MBP-Sbh1 in E. coli; lysate passed over nickel resin, eluted with imidazole; Coomassie SDS-PAGE and Western blot (anti-His5, anti-MBP)
[1] = biological target: His6-TEV-tagged NosGet3d (pET33b, TA protein capture assay) (Nostoc sp. PCC 7120)
[2] = biological target: His6-TEV-tagged NosGet3dΔαCD (pET33b, TA protein capture assay) (Nostoc sp. PCC 7120)
[3] = biological target: His6-TEV-tagged AtGet3dΔ1–57ΔαCD (pET33b, TA protein capture assay) (Arabidopsis thaliana)

binding [1]: binds
binding [2]: binds
binding [3]: binds
B1: maltose-binding protein (MBP)–tagged yeast TA protein Sbh1 (protein, UniProt P52870 1-82)
chain: MSSPTPPGGQRTLQKRKQGSSQKVAASAPKKNTNSNNSILKIYSDEATGLRVDPLVVLFLAVGFIFSVVALHVISKVAGKLF

Source: article PMC10248533, “Structures of Get3d reveal a distinct architecture associated with the emergence of photosynthesis” (The Journal of Biological Chemistry, 2023)
